Measured values taken from patent US10416175B2, “Opioid detection” (Randox Laboratories Limited, priority 2015, dated 2019).

Legend:
[1] = system: antibody raised against Immunogen-2; assay: Competitive ELISA with polyclonal antibody raised against Immunogen-2, Tracer-1 as detecting agent; assay type: binding, sheep
Protocol: Pre-immunization blood samples are collected from sheep. In order to generate polyclonal antisera, 2 mgs of the immunogen (structure 1) is prepared in PBS, mixed at a ratio of 50% immunogen in PBS to 50% Freund's Complete adjuvant (Sigma, Product Number F5881) and emulsified by repeatedly passing the mixture through a tip on the end of a 1 ml syringe, until it reaches the required semi-solid consistency. 1.1 ml of the emulsified mixture is injected intramuscularly into each host animal (sheep) as the primary immunisation dose. Further injections (boosts) are prepared (1 mg of immunogen is prepared in PBS and mixed at a ratio of 50% Immunogen in PBS/50% Freunds Incomplete adjuvant, Sigma, Product Number—F5506). Boost injections are delivered intramuscularly at monthly intervals, 1 ml per animal. Serum is sampled monthly by collection of whole blood from the jugular vein for evaluation of the antibody titre. The degree of antibody purification required depends on the intended application. For many purposes, there is no requirement for purification of the serum, however, in other cases, such as, where the antibody is to be immobilised on a solid support, purification steps (such as caprylic acid/ammonium sulphate precipitation) can be taken to remove undesired material and eliminate non-specific binding. In another embodiment, the purification is by immunoglobulin precipitation, antigen-specific affinity purification, column chromatography, such as, size-exclusion chromatography or ion exchange chromatography.
The polyclonal antibody raised against Immunogen-2 of Example 9 was removed from fridge or freezer and brought to room temperature. The antibody was diluted to 2.5 μg/ml in 10 mM Tris pH 8.5 and all appropriate wells are coated at 125 μl/well at 37° C. for 2 hours or at 4° C. overnight. The plate was washed 4 times over a period of 10 minutes with working strength tris-buffered saline and tween 20 (TBST) wash buffer and tapped dry. 50 μl of working strength TBST was pipetted into the appropriate wells. Dilutions of target analyte and potential crossreactant(s) were prepared in working strength TBST and pipetted (50 μl) into the appropriate wells beginning with the lowest concentration to the highest concentration. Hapten-HRP (Tracer-1) conjugate at the appropriate concentration was prepared in conjugate dilution buffer and 75 μl into pipetted into appropriate wells. The plate was tapped gently to mix contents, sealed and incubated at 25° C. for 1 hour. The plate was washed 6 times over a 10-15 minute period (3 quick washes followed by 3 additional washes over 12 minutes) and tapped dry thoroughly onto tissue paper. Trimethylbenzidine (TMB) solution (125 μl) was added to each well and tapped gently, and the plate was incubated at room temperature for 20 minutes in the dark. The reaction was stopped by addition of 125 μl of 0.2 M sulphuric acid to each well and the absorbance measured at 450 nm using an ELISA plate reader (Biotek Elx800).

[2] = system: antibody specific to mitragynine; assay: ELISA for mitragynine and 8-desmethylmitragynine (polyclonal antibody to mitragynine); assay type: binding
Excerpt: In one embodiment, the antibodies and immunoassay methods and kits for mitragynine (kratom), are as described in U.S. patent application Ser. No. 14/184,422, filed Feb. 19, 2014 entitled “Immunoassay for Detecting Kratom, its Constituents and their Use” the entire contents of which are incorporated herein by reference. In particular, U.S. patent application Ser. No. 14/184,422 describes a polyclonal antibody which that binds specifically to an epitope of one or more of mitragynine, 8-desmethylmitragynine, 8-sulphonylmitragynine, and 8-glucuronidylmitragynine which was raised to an immunogen having the structure of:
[drawing 5] • wherein HRP is horseradish peroxidase.

Row | Molecule | A450 ([1]; 0.156 ng/ml analyte) | A450 ([1]; 0.313 ng/ml analyte) | A450 ([1]; 0.625 ng/ml analyte) | A450 ([1]; 1.250 ng/ml analyte) | A450 ([1]; 2.500 ng/ml analyte) | A450 ([1]; 5.000 ng/ml analyte) | A450 ([1]; 10.000 ng/ml analyte) | A450 ([2]; 0.313 ng/ml analyte) | A450 ([2]; 0.625 ng/ml analyte) | A450 ([2]; 1.250 ng/ml analyte) | A450 ([2]; 2.500 ng/ml analyte) | A450 ([2]; 5.000 ng/ml analyte) | A450 ([2]; 10.000 ng/ml analyte) | A450 ([2]; 20.000 ng/ml analyte)
1 | CNC[C@@H]1CCCC[C@@]1(O)c1cccc(OC)c1 (racemic) [N-Desmethyltramadol, (±)-cis-2-[(methylamino)methyl]-1-(3-methoxyphenyl)cyclohexanol] | 1.884 | 1.891 | 1.917 | 1.930 | 1.908 | 1.885 | 1.896 |  |  |  |  |  |  | 
2 | CC[C@@H]1CN2CCc3c([nH]c4cccc(O)c34)[C@@H]2C[C@@H]1/C(=C\OC)C(=O)OC [8-Desmethylmitragynine, 8-desmethylmitragynine] |  |  |  |  |  |  |  | 1.116 | 0.956 | 0.816 | 0.633 | 0.441 | 0.279 | 0.191
3 | CC[C@@H]1CN2CCc3c([nH]c4cccc(OC)c34)[C@@H]2C[C@@H]1/C(=C\OC)C(=O)OC [Mitragynine, mitragynine] |  |  |  |  |  |  |  | 1.216 | 1.012 | 0.787 | 0.590 | 0.401 | 0.273 | 0.177
4 | (±)-cis-2-[(dimethylamino)methyl]-1-(3 hydroxyphenyl)-cyclohexanol [O-Desmethyltramadol] | 1.049 | 0.735 | 0.479 | 0.308 | 0.193 | 0.122 | 0.076 |  |  |  |  |  |  | 
